According to the supplement of paper PMC12823440, “Inhibitors supercharge kinase turnover through native proteolytic circuits” (Nature, 2025):
Structures can show the parent of a compound that is named as a salt. The list shows a part of the results. Hit calls seldom repeat between salt and free forms of one compound.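 Kinases were expressed as nanoluciferase fusions in K562 cells and luminescence was read every 4 h between 2 and 18 h as percent of control, DMSO set to 100% and a positive control to 0%. A time point counts as decreased when the signal drops significantly (2 sigma). The hit call is the authors' own, does not follow from the count of time points alone, and its rule is not shown.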

Amino acid sequences for entries named in this document (tags omitted). A change or cut given only in a name is not applied to a line headed by its entry.
UniProt Q9UQM7, whole entry: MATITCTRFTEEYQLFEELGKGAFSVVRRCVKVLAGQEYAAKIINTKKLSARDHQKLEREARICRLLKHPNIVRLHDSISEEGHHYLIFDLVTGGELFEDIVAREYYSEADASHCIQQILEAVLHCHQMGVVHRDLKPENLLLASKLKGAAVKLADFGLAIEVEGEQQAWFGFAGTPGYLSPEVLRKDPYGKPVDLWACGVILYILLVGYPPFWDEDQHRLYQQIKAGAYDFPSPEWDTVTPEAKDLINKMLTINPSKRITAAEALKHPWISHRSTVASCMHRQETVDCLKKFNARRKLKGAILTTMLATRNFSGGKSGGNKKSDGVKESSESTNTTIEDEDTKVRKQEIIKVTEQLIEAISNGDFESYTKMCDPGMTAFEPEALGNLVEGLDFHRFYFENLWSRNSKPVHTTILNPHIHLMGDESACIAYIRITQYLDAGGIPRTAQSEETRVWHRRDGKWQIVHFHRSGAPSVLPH
UniProt Q15131: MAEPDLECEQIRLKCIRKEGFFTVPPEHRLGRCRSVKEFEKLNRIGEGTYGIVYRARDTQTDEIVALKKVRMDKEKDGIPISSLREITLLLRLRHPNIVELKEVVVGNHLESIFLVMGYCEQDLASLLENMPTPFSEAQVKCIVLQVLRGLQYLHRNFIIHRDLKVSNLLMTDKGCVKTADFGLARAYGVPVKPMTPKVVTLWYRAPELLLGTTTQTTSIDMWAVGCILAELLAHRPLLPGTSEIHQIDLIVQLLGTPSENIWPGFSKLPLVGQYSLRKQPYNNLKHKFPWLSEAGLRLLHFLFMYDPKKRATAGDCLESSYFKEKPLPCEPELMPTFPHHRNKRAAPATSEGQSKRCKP
UniProt Q00526: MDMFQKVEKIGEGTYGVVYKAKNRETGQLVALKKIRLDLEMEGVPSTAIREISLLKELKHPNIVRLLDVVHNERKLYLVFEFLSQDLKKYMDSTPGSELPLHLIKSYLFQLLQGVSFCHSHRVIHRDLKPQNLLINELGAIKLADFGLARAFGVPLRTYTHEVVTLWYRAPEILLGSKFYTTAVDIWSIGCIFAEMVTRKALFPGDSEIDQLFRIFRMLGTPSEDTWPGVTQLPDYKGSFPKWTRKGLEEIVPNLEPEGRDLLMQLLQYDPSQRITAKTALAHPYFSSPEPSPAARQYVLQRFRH
UniProt P11802: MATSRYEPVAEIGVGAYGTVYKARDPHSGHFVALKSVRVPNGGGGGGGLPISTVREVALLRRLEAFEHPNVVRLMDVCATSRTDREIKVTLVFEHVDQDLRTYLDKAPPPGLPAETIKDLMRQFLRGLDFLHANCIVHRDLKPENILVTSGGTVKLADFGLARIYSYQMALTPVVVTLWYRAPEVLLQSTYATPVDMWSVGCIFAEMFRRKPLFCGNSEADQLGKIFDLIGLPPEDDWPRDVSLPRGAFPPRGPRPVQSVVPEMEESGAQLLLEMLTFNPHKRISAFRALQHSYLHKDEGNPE
UniProt Q00535, whole entry, looked up: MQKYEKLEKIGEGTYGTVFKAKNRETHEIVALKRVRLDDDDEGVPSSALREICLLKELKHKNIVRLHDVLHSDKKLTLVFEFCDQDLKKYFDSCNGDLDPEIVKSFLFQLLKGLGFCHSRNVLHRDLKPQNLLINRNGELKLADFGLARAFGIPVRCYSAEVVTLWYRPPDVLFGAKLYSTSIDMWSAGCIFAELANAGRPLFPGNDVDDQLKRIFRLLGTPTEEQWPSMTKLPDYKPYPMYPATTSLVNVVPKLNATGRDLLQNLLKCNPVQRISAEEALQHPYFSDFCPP
UniProt Q00534, whole entry: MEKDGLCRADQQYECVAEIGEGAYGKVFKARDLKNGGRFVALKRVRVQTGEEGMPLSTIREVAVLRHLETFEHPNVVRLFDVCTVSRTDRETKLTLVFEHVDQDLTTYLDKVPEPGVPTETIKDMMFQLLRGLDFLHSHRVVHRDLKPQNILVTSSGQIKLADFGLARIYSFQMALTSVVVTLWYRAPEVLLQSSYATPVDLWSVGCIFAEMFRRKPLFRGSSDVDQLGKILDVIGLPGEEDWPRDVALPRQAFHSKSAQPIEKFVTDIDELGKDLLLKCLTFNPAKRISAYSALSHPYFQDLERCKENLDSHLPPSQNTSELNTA
UniProt P50750, whole entry: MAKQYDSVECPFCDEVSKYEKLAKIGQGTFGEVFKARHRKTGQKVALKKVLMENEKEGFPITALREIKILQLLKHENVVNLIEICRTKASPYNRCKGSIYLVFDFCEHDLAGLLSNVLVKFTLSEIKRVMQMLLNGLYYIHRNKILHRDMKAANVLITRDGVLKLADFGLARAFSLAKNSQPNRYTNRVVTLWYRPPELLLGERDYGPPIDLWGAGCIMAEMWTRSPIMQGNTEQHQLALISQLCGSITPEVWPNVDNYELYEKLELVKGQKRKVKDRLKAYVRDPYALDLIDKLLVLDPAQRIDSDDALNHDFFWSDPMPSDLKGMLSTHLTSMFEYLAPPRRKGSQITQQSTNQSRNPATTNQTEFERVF
UniProt O96017, whole entry: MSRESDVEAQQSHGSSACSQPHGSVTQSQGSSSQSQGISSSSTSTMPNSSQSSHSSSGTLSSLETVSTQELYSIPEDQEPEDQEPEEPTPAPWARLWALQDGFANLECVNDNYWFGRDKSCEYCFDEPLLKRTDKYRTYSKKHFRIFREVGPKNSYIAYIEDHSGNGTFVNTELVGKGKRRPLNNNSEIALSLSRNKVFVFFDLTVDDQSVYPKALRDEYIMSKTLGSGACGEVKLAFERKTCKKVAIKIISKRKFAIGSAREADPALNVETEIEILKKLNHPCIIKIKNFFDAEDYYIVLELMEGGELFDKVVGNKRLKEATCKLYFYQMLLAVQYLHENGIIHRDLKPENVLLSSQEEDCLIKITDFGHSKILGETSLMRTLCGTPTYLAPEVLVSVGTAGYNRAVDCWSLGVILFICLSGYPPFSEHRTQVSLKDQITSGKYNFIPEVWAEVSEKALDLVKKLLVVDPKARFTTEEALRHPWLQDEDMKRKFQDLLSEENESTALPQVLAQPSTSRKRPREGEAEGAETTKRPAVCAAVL
UniProt P07333, whole entry: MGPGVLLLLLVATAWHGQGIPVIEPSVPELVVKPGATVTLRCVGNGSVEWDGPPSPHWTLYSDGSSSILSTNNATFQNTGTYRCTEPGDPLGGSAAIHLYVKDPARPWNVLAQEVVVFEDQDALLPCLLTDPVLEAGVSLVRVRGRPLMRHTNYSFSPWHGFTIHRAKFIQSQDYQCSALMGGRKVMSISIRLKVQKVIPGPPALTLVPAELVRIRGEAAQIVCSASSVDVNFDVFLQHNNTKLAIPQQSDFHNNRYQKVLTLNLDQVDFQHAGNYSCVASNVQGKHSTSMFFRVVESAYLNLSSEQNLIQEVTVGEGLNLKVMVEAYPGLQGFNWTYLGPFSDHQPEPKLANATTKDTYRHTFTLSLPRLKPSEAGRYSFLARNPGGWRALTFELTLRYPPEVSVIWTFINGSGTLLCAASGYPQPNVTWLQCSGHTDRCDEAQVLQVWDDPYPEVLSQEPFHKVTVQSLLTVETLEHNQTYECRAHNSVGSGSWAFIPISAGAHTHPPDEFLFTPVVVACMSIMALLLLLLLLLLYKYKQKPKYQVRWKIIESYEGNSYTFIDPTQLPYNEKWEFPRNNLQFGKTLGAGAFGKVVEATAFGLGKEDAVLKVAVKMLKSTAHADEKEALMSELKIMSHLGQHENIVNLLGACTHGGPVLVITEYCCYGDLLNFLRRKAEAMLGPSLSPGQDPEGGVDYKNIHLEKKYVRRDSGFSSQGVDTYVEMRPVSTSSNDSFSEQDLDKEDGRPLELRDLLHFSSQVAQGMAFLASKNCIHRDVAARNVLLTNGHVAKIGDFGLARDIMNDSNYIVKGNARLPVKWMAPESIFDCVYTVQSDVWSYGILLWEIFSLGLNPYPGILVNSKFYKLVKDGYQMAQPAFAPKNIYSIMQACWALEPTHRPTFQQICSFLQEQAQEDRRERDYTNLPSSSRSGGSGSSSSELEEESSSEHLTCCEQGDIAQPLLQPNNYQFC
UniProt P48730: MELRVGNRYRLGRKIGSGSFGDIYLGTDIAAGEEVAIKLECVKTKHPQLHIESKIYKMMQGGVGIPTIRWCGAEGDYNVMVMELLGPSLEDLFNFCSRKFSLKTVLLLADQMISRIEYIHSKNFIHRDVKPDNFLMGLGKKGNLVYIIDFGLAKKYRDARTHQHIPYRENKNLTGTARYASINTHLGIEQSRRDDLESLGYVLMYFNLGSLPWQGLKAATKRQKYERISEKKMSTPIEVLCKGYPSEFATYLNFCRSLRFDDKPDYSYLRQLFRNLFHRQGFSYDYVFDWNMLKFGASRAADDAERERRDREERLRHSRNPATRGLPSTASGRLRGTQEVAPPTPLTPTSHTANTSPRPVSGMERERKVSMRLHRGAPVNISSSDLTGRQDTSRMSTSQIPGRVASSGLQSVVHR
UniProt Q08345: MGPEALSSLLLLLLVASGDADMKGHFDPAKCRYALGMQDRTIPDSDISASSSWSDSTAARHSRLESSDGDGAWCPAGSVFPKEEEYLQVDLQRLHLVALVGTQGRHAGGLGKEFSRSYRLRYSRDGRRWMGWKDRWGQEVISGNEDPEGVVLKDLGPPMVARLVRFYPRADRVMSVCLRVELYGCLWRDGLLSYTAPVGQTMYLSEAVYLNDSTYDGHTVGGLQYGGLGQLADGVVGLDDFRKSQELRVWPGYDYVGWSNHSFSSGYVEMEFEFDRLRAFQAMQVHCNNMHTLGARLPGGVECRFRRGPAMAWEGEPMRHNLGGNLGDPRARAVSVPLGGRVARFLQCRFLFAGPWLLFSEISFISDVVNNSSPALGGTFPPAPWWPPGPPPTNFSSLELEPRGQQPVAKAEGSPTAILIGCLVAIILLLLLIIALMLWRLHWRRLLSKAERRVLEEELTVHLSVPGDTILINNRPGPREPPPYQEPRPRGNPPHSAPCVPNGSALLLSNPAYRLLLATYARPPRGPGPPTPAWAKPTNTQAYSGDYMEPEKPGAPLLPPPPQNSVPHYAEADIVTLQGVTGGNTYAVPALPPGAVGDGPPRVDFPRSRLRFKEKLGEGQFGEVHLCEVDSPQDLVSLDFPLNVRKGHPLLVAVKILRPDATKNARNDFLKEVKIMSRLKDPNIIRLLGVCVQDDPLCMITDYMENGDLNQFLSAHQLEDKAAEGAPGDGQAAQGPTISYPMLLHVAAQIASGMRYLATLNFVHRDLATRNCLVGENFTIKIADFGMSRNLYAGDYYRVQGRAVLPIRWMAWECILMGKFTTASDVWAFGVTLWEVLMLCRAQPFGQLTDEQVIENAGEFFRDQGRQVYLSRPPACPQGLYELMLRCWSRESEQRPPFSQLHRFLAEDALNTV
UniProt Q9Y463, whole entry, looked up: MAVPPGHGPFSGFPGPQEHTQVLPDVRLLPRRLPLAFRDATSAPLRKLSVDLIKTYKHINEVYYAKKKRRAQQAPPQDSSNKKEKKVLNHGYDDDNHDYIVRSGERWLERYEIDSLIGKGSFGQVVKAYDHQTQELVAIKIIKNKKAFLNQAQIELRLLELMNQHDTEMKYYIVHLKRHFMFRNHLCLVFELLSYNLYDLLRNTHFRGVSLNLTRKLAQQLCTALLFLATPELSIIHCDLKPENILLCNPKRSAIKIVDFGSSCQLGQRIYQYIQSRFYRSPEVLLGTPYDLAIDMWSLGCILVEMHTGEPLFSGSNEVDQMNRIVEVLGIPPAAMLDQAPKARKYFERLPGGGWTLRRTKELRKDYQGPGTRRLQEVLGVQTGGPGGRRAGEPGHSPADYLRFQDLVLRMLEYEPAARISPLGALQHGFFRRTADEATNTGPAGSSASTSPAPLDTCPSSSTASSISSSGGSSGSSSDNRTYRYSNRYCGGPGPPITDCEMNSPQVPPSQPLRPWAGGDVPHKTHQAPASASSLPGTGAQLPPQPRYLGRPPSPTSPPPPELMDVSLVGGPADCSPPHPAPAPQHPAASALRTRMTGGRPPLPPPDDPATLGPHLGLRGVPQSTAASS
UniProt Q92630: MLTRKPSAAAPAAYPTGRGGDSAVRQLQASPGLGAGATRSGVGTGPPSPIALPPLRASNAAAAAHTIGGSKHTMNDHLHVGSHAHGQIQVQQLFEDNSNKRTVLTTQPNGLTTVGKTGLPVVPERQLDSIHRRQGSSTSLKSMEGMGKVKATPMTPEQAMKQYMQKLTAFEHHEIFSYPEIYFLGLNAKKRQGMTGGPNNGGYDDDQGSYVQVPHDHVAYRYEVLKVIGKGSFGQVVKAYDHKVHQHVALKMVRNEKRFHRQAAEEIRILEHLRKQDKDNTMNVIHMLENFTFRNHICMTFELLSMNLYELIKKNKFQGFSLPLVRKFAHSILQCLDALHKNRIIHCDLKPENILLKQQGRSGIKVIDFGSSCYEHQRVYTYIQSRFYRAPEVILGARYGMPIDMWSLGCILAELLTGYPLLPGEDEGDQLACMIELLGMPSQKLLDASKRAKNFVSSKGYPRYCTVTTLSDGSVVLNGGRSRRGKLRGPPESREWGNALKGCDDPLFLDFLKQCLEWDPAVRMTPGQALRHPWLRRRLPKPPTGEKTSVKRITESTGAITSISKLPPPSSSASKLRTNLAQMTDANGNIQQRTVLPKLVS

Assays:
Experiment in all cases: kinase-Nluc reporter destabilization hit call (1 = scored as downregulated) (binary); higher = compound decreases kinase abundance
Details in all cases: K562; 2-18 h
BRAF_V600E = system: BRAF_V600E
BTK = BTK (UniProt Q06187)
CAMK2A = CAMK2A (UniProt Q9UQM7)
CAMK2G = CAMK2G (UniProt Q13555)
CDK10 = CDK10 (UniProt Q15131)
CDK2 = CDK2 (UniProt P24941)
CDK3 = CDK3 (UniProt Q00526)
CDK4 = CDK4 (UniProt P11802)
CDK5 = CDK5 (UniProt Q00535)
CDK6 = CDK6 (UniProt Q00534)
CDK7 = CDK7 (UniProt P50613)
CDK9 = CDK9 (UniProt P50750)
CHEK2 = CHEK2 (UniProt O96017)
CSF1R = CSF1R (UniProt P07333)
CSK = CSK (UniProt P41240)
CSNK1A1 = CSNK1A1 (UniProt P48729)
CSNK1D = CSNK1D (UniProt P48730)
DDR1 = DDR1 (UniProt Q08345)
DYRK1B = DYRK1B (UniProt Q9Y463)
DYRK2 = DYRK2 (UniProt Q92630)

Measured: kinase-Nluc reporter destabilization hit call

Cc1ccc2c(Nc3cccc(Cl)c3F)nccc2c1NC(=O)c1csc2c(N)ncnc12 [Belvarafenib] (10 µM)
inactive: BRAF_V600E 0 | BTK 0 | CAMK2A 0 | CAMK2G 0 | CDK10 = 0 | CDK2 = 0 | CDK3 = 0 | CDK4 = 0 | CDK5 = 0 | CDK6 = 0 | CDK7 = 0 | CDK9 = 0 | CHEK2 = 0 | CSF1R 0 | CSK 0 | CSNK1A1 = 0 | CSNK1D 0 | DDR1 = 0 | DYRK1B 0 | DYRK2 = 0

N[C@@H](CCC(=O)O)C(=O)N[C@@H](Cc1c[nH]c2ccccc12)C(=O)O [Oglufanide] (10 µM)
inactive: BRAF_V600E 0 | BTK 0 | CAMK2A 0 | CAMK2G 0 | CDK10 = 0 | CDK2 = 0 | CDK3 = 0 | CDK4 = 0 | CDK5 = 0 | CDK6 = 0 | CDK7 = 0 | CDK9 = 0 | CHEK2 = 0 | CSF1R 0 | CSK 0 | CSNK1A1 = 0 | CSNK1D 0 | DDR1 = 0 | DYRK1B 0 | DYRK2 = 0

Cc1cc(C)nc(NS(=O)(=O)c2ccc(NC(=S)NC(=O)COc3ccc(Br)cc3Cl)cc2)n1 (2.5 µM)
inactive: BRAF_V600E 0 | BTK 0 | CAMK2A 0 | CAMK2G 0 | CDK10 = 0 | CDK2 = 0 | CDK3 = 0 | CDK4 = 0 | CDK5 = 0 | CDK6 = 0 | CDK7 = 0 | CDK9 = 0 | CHEK2 = 0 | CSF1R 0 | CSK 0 | CSNK1A1 = 0 | CSNK1D 0 | DDR1 = 0 | DYRK1B 0 | DYRK2 = 0

O=C(Nc1cccc(Nc2ncc(Br)c(NCCc3cnc[nH]3)n2)c1)N1CCCC1 (10 µM)
inactive: BRAF_V600E 0 | BTK 0 | CAMK2A 0 | CAMK2G 0 | CDK10 = 0 | CDK2 = 0 | CDK3 = 0 | CDK4 = 0 | CDK5 = 0 | CDK6 = 0 | CDK7 = 0 | CDK9 = 0 | CHEK2 = 0 | CSF1R 0 | CSK 0 | CSNK1A1 = 0 | CSNK1D 0 | DDR1 = 0 | DYRK1B 0 | DYRK2 = 0

COc1ccc(/C=C/C(=O)C2(C(=O)/C=C/c3ccc(OC)c(OC)c3)CCCCC2)cc1OC (2.5 µM)
inactive: BRAF_V600E 0 | BTK 0 | CAMK2A 0 | CAMK2G 0 | CDK10 = 0 | CDK2 = 0 | CDK3 = 0 | CDK4 = 0 | CDK5 = 0 | CDK6 = 0 | CDK7 = 0 | CDK9 = 0 | CHEK2 = 0 | CSF1R 0 | CSK 0 | CSNK1A1 = 0 | CSNK1D 0 | DDR1 = 0 | DYRK1B 0 | DYRK2 = 0

CC(C)N1CCN(c2ccc(Nc3ncc4cc5n(c4n3)C3(CCCCC3)CNC5=O)nc2)CC1 [Lerociclib (dihydrochloride)] (2 µM)
inactive: BRAF_V600E 0 | BTK 0 | CAMK2A 0 | CAMK2G 0 | CDK10 = 0 | CDK2 = 0 | CDK3 = 0 | CDK4 = 0 | CDK5 = 0 | CDK6 = 0 | CDK7 = 0 | CDK9 = 0 | CHEK2 = 0 | CSF1R 0 | CSK 0 | CSNK1A1 = 0 | CSNK1D 0 | DDR1 = 0 | DYRK1B 0 | DYRK2 = 0

COc1cc(-c2cn[nH]c2)ccc1C(=O)Nc1ccc2c(c1)CCNCC2 (10 µM)
inactive: BRAF_V600E 0 | BTK 0 | CAMK2A 0 | CAMK2G 0 | CDK10 = 0 | CDK2 = 0 | CDK3 = 0 | CDK4 = 0 | CDK5 = 0 | CDK6 = 0 | CDK7 = 0 | CDK9 = 0 | CHEK2 = 0 | CSF1R 0 | CSK 0 | CSNK1A1 = 0 | CSNK1D 0 | DDR1 = 0 | DYRK1B 0 | DYRK2 = 0

CNC(=O)c1ccccc1Oc1nc(Nc2cc(OC)c(OC)c(OC)c2)ncc1Br (2.5 µM)
inactive: BRAF_V600E 0 | BTK 0 | CAMK2A 0 | CAMK2G 0 | CDK10 = 0 | CDK2 = 0 | CDK3 = 0 | CDK4 = 0 | CDK5 = 0 | CDK6 = 0 | CDK7 = 0 | CDK9 = 0 | CHEK2 = 0 | CSF1R 0 | CSK 0 | CSNK1A1 = 0 | CSNK1D 0 | DDR1 = 0 | DYRK1B 0 | DYRK2 = 0

CC(C)=CCc1c(-c2ccc(O)cc2O)oc2c3c(cc(O)c2c1=O)OC(C)(C)C=C3 [Morusin] (2.5 µM)
inactive: BRAF_V600E 0 | BTK 0 | CAMK2A 0 | CAMK2G 0 | CDK10 = 0 | CDK2 = 0 | CDK3 = 0 | CDK4 = 0 | CDK5 = 0 | CDK6 = 0 | CDK7 = 0 | CDK9 = 0 | CHEK2 = 0 | CSF1R 0 | CSK 0 | CSNK1A1 = 0 | CSNK1D 0 | DDR1 = 0 | DYRK1B 0 | DYRK2 = 0

Cc1ccc(Oc2nc3cc(-c4ccc(-c5ccccc5)cc4)c(Cl)cc3[nH]2)cc1C(=O)O (10 µM)
inactive: BRAF_V600E 0 | BTK 0 | CAMK2A 0 | CAMK2G 0 | CDK10 = 0 | CDK2 = 0 | CDK3 = 0 | CDK4 = 0 | CDK5 = 0 | CDK6 = 0 | CDK7 = 0 | CDK9 = 0 | CHEK2 = 0 | CSF1R 0 | CSK 0 | CSNK1A1 = 0 | CSNK1D 0 | DDR1 = 0 | DYRK1B 0 | DYRK2 = 0

CCc1cncnc1N1CCN(Cc2nc3ccc(C(F)(F)F)cc3[nH]2)CC1 (10 µM)
inactive: BRAF_V600E 0 | BTK 0 | CAMK2A 0 | CAMK2G 0 | CDK10 = 0 | CDK2 = 0 | CDK3 = 0 | CDK4 = 0 | CDK5 = 0 | CDK6 = 0 | CDK7 = 0 | CDK9 = 0 | CHEK2 = 0 | CSF1R 0 | CSK 0 | CSNK1A1 = 0 | CSNK1D 0 | DDR1 = 0 | DYRK1B 0 | DYRK2 = 0

Not a retest: two of the compounds above.
CC(C)N1CCN(c2ccc(Nc3ncc4cc5n(c4n3)C3(CCCCC3)CNC5=O)nc2)CC1 [Lerociclib (dihydrochloride)] (2 µM)
inactive: BRAF_V600E 0 | BTK 0 | CAMK2A 0 | CAMK2G 0 | CDK10 = 0 | CDK2 = 0 | CDK3 = 0 | CDK4 = 0 | CDK5 = 0 | CDK6 = 0 | CDK7 = 0 | CDK9 = 0 | CHEK2 = 0 | CSF1R 0 | CSK 0 | CSNK1A1 = 0 | CSNK1D 0 | DDR1 = 0 | DYRK1B 0 | DYRK2 = 0

COc1cc(-c2cn[nH]c2)ccc1C(=O)Nc1ccc2c(c1)CCNCC2 (10 µM)
inactive: BRAF_V600E 0 | BTK 0 | CAMK2A 0 | CAMK2G 0 | CDK10 = 0 | CDK2 = 0 | CDK3 = 0 | CDK4 = 0 | CDK5 = 0 | CDK6 = 0 | CDK7 = 0 | CDK9 = 0 | CHEK2 = 0 | CSF1R 0 | CSK 0 | CSNK1A1 = 0 | CSNK1D 0 | DDR1 = 0 | DYRK1B 0 | DYRK2 = 0

Next entries follow:

O=C(O)c1cc(N(Cc2ccccc2O)Cc2ccccc2O)ccc1O [Lavendustin B] (10 µM)
inactive: BRAF_V600E 0 | BTK 0 | CAMK2A 0 | CAMK2G 0 | CDK10 = 0 | CDK2 = 0 | CDK3 = 0 | CDK4 = 0 | CDK5 = 0 | CDK6 = 0 | CDK7 = 0 | CDK9 = 0 | CHEK2 = 0 | CSF1R 0 | CSK 0 | CSNK1A1 = 0 | CSNK1D 0 | DDR1 = 0 | DYRK1B 0 | DYRK2 = 0

Nc1nccc(Oc2ccc(NC(=O)c3c[nH]cc(-c4ccc(F)cc4)c3=O)cc2F)c1Cl (10 µM)
inactive: BRAF_V600E 0 | BTK 0 | CAMK2A 0 | CAMK2G 0 | CDK10 = 0 | CDK2 = 0 | CDK3 = 0 | CDK4 = 0 | CDK5 = 0 | CDK6 = 0 | CDK9 = 0 | CHEK2 = 0 | CSK 0 | CSNK1A1 = 0 | CSNK1D 0 | DDR1 = 0 | DYRK1B 0 | DYRK2 = 0
active: CDK7 = 1 | CSF1R 1

COc1cc2ncnc(Nc3ccc(F)c(Cl)c3)c2cc1NC(=O)/C=C/CN1CCCCC1 [Dacomitinib] (10 µM)
inactive: BRAF_V600E 0 | BTK 0 | CAMK2A 0 | CAMK2G 0 | CDK10 = 0 | CDK2 = 0 | CDK3 = 0 | CDK4 = 0 | CDK5 = 0 | CDK6 = 0 | CDK7 = 0 | CDK9 = 0 | CHEK2 = 0 | CSF1R 0 | CSK 0 | CSNK1A1 = 0 | CSNK1D 0 | DDR1 = 0 | DYRK1B 0 | DYRK2 = 0

CN(C)CCC=C1c2ccccc2CCc2ccccc21 [Amitriptyline (hydrochloride)] (2.5 µM)
inactive: BRAF_V600E 0 | BTK 0 | CAMK2A 0 | CAMK2G 0 | CDK10 = 0 | CDK2 = 0 | CDK3 = 0 | CDK4 = 0 | CDK5 = 0 | CDK6 = 0 | CDK7 = 0 | CDK9 = 0 | CHEK2 = 0 | CSF1R 0 | CSK 0 | CSNK1A1 = 0 | CSNK1D 0 | DDR1 = 0 | DYRK1B 0 | DYRK2 = 0

CN(c1ccc(NC(=O)Nc2ccc(OC(F)(F)F)cc2)cc1)c1ccnc(Nc2cccc(S(N)(=O)=O)c2)n1 (2.5 µM)
inactive: BRAF_V600E 0 | BTK 0 | CAMK2A 0 | CAMK2G 0 | CDK10 = 0 | CDK2 = 0 | CDK3 = 0 | CDK4 = 0 | CDK5 = 0 | CDK6 = 0 | CDK7 = 0 | CDK9 = 0 | CHEK2 = 0 | CSF1R 0 | CSK 0 | CSNK1A1 = 0 | CSNK1D 0 | DDR1 = 0 | DYRK1B 0
active: DYRK2 = 1

CNC(=O)c1ccccc1Nc1nc(Nc2ccc3c(c2OC)CCC[C@H](N2CCN(CCO)CC2)C3)ncc1Cl (10 µM)
inactive: BRAF_V600E 0 | BTK 0 | CAMK2A 0 | CAMK2G 0 | CDK10 = 0 | CDK2 = 0 | CDK3 = 0 | CDK4 = 0 | CDK5 = 0 | CDK6 = 0 | CDK7 = 0 | CDK9 = 0 | CHEK2 = 0 | CSF1R 0 | CSK 0 | CSNK1A1 = 0 | CSNK1D 0 | DDR1 = 0 | DYRK1B 0 | DYRK2 = 0

CCCCCCCCCCCCCCCCOP(=O)([O-])OCC[N+](C)(C)C [Miltefosine] (10 µM)
inactive: BRAF_V600E 0 | BTK 0 | CAMK2A 0 | CAMK2G 0 | CDK10 = 0 | CDK2 = 0 | CDK3 = 0 | CDK4 = 0 | CDK5 = 0 | CDK6 = 0 | CDK7 = 0 | CDK9 = 0 | CHEK2 = 0 | CSF1R 0 | CSK 0 | CSNK1A1 = 0 | CSNK1D 0 | DDR1 = 0 | DYRK1B 0 | DYRK2 = 0
